From the supplement of paper PMC7666118
The other results are listed elsewhere or left out.

Amino acid sequences for entries named in this document (tags omitted). A change or cut given only in a name is not applied to a line headed by its entry.
UniProt Q9Y265, whole entry: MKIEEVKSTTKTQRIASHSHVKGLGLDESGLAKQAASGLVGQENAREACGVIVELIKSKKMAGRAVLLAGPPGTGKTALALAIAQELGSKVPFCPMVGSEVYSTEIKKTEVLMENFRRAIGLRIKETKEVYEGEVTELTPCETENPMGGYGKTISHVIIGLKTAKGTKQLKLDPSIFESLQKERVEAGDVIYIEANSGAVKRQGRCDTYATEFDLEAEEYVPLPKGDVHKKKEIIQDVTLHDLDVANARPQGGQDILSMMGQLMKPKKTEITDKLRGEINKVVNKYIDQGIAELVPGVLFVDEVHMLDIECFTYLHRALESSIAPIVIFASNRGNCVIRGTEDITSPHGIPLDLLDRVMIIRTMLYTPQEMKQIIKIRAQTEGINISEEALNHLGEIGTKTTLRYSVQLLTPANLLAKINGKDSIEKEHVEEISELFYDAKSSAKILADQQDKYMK
UniProt Q7L523, whole entry: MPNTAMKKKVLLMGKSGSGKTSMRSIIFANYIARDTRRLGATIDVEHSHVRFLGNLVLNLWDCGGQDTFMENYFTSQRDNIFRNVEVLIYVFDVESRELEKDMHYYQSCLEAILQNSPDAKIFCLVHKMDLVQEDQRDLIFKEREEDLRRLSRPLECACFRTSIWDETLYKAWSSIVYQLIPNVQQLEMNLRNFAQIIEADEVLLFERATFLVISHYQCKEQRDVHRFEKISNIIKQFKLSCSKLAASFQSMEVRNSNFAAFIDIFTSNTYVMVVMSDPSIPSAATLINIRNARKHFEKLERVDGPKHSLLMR
UniProt Q6UVJ0: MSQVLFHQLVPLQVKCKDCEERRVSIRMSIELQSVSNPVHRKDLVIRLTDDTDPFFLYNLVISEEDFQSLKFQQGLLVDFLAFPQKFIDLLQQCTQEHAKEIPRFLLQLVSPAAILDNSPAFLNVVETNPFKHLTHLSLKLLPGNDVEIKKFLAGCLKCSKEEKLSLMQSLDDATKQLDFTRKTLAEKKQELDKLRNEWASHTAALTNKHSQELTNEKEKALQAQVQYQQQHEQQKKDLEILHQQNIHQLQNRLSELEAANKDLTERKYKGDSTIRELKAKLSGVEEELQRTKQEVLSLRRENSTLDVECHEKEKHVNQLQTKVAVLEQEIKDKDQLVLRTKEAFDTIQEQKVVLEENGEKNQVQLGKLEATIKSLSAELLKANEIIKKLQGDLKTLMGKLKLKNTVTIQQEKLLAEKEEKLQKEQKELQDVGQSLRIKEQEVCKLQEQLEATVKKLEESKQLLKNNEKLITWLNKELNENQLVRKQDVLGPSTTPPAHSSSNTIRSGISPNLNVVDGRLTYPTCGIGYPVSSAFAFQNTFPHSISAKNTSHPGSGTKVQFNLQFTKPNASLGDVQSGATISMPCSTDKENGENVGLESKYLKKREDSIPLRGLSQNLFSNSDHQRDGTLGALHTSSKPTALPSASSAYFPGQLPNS
UniProt O60942: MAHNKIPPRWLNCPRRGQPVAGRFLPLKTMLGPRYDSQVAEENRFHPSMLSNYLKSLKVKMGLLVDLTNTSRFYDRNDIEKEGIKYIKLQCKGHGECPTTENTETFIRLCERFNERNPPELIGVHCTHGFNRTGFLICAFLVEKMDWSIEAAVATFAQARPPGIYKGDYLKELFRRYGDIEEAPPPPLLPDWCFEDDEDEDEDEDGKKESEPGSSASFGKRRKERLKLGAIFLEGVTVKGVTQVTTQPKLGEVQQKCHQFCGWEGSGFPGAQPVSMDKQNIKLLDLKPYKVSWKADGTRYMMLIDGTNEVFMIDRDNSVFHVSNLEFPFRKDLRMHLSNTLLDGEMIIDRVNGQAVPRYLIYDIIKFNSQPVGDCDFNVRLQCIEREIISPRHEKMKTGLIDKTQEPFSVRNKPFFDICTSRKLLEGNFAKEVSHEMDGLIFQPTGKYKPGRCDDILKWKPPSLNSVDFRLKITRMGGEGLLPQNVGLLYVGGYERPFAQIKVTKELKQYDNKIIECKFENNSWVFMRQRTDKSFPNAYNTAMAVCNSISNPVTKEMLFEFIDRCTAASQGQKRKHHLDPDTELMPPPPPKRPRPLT
UniProt Q96IZ7: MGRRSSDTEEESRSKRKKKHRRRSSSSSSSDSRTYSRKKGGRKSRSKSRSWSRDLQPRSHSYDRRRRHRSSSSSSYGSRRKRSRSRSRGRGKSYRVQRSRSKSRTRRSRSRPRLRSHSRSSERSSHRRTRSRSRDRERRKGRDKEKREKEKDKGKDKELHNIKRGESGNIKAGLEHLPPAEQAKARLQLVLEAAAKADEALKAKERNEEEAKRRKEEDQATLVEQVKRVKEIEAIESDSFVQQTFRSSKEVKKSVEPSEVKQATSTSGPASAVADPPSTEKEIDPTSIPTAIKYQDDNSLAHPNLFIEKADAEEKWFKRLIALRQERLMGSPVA
UniProt Q96NL6: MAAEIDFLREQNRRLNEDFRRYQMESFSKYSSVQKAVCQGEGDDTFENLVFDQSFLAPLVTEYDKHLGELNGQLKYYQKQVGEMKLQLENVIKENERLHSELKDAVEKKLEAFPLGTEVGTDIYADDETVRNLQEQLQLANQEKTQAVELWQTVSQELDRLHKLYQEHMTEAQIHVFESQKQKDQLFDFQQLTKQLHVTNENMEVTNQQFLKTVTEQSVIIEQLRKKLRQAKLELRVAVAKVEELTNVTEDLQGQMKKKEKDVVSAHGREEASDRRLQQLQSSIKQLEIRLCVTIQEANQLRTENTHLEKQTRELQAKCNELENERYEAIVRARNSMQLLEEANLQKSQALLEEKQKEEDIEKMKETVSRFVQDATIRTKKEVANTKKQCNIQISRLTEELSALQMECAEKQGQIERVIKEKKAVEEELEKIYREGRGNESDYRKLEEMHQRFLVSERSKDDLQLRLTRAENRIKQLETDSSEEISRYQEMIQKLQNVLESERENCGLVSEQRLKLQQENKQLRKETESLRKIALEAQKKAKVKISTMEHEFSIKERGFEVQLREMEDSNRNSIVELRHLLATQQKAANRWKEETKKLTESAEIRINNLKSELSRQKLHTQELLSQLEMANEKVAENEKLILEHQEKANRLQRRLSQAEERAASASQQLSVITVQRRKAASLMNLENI
UniProt Q9UPN7: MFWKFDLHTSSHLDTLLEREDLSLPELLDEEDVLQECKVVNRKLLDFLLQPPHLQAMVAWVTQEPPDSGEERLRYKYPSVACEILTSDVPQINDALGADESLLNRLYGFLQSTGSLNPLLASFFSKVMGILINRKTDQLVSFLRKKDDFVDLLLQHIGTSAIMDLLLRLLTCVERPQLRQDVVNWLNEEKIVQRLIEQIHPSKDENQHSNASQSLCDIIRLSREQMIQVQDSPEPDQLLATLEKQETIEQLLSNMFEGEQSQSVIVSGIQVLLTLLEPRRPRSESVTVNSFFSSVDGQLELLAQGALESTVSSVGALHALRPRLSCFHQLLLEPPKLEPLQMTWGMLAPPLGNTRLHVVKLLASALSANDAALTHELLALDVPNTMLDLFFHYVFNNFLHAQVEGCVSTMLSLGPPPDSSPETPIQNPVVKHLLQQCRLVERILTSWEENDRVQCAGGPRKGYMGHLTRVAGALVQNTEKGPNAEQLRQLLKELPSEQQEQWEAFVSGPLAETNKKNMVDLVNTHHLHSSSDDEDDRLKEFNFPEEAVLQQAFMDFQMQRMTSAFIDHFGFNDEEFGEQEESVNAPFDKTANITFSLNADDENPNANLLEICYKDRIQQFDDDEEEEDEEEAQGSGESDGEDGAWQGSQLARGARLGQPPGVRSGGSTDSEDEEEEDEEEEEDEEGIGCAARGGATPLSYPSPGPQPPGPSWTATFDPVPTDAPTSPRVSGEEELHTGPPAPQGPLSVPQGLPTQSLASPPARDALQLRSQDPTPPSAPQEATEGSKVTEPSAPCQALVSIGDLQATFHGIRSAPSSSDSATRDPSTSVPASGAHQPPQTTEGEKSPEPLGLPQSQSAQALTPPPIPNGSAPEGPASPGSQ
UniProt O75676: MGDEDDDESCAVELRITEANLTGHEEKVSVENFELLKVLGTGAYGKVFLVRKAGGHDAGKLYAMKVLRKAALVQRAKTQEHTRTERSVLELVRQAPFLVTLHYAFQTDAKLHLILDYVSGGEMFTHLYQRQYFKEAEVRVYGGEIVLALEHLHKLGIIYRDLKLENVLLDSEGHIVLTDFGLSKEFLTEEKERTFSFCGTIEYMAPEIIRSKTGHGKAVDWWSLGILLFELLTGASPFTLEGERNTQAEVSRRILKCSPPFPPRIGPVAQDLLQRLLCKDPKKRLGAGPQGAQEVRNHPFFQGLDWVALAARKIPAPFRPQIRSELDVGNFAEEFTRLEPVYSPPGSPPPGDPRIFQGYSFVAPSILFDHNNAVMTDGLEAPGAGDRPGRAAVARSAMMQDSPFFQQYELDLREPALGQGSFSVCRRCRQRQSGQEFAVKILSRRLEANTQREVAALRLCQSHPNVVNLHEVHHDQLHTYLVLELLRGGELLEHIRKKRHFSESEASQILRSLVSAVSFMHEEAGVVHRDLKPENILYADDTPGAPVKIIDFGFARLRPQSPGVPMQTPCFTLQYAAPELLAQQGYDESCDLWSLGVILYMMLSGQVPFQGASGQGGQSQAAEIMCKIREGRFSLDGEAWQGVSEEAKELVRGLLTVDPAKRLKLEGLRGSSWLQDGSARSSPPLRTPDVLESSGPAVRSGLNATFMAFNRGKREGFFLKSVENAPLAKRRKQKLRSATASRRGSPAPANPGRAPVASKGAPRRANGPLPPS
UniProt O75818: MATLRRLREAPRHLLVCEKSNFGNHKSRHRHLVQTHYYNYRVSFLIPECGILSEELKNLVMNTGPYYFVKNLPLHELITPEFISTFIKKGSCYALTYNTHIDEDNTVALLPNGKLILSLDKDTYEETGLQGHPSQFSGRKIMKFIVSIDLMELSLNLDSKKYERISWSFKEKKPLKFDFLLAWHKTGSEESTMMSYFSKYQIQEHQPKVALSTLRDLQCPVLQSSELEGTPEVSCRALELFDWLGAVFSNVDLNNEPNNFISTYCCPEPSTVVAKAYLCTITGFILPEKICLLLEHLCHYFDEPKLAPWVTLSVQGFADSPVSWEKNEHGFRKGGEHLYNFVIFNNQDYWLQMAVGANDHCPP
UniProt Q15050: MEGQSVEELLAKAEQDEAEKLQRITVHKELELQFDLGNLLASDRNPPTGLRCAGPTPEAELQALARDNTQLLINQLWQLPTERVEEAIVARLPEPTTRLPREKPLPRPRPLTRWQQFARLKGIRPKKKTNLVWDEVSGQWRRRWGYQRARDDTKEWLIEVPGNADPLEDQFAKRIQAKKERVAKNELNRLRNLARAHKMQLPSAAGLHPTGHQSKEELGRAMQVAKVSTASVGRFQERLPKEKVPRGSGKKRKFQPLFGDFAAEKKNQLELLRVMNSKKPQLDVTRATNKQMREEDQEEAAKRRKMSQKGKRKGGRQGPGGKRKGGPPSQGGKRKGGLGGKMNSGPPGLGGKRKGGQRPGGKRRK
UniProt Q9Y3B9: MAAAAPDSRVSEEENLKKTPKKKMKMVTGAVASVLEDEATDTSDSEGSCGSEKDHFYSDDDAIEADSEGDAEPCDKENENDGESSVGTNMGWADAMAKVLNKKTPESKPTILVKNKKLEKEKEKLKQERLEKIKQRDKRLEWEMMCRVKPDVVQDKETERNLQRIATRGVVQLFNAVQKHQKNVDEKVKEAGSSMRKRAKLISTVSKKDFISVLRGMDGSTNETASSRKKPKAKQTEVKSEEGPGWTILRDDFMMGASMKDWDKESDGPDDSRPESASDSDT
UniProt Q9HCN8: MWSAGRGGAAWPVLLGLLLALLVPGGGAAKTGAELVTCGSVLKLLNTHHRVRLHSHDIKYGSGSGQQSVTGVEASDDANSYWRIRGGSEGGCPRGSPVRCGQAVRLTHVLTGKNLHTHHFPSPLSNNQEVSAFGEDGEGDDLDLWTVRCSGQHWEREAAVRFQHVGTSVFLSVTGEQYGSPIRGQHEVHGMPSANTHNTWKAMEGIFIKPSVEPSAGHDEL
UniProt Q12904: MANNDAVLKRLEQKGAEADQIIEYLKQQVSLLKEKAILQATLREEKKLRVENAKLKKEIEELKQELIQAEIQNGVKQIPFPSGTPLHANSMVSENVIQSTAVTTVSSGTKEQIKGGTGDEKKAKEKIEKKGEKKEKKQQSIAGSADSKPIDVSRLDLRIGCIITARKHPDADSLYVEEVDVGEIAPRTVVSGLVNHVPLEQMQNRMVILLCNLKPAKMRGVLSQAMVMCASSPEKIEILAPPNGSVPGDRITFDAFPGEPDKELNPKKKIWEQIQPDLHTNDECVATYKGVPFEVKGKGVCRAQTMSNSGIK
UniProt Q8N488: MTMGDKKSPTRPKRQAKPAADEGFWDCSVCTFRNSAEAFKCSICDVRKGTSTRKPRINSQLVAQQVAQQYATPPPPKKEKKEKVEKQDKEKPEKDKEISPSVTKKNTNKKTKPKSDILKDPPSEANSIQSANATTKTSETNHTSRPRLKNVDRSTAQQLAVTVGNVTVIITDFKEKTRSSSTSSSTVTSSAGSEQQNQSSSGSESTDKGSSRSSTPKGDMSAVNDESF
UniProt P31949: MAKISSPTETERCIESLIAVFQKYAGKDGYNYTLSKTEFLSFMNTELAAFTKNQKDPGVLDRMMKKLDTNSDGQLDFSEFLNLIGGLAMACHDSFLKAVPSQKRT

compound: COc1ccc(Cn2ccc3cc(C)c(C(=O)NO)cc32)cc1; assay: dose-dependent thermal stabilisation call (2D-TPP, DLPTP, 10% FDR) (binary (1 = stabilised)); higher = stabilised by the compound; details: system: HL-60 intact cells; concentration range 0.04-10 µM
Method: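 2D thermal proteome profiling in intact HL-60 cells treated with BRD-3811 (0, 0.04, 0.29, 2, 10 uM) for 90 min at 37 C, then heated 3 min at one of 12 temperatures (42-63.9 C). Soluble protein was quantified by TMT10 MS. The value is the DLPTP call of the paper: dose-dependent thermal stabilisation over all temperatures at 10% FDR (F-test of a dose-response against a flat model); one experiment, one call per tested protein.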

| Target | dose-dependent thermal stabilisation call |
| --- | --- |
| SCRIB | inactive: 0 |
| RUVBL1 (UniProt Q9Y265) | inactive: 0 |
| RPL34 (UniProt P49207) | inactive: 0 |
| RRAGA (UniProt Q7L523) | inactive: 0 |
| RPAP2 (UniProt Q8IXW5) | inactive: 0 |
| RUNDC1 (UniProt Q96C34) | inactive: 0 |
| RSL1D1 (UniProt O76021) | inactive: 0 |
| SASS6 (UniProt Q6UVJ0) | inactive: 0 |
| RNGTT (UniProt O60942) | inactive: 0 |
| SCYL3 (UniProt Q8IZE3) | inactive: 0 |
| SEC63 (UniProt Q9UGP8) | inactive: 0 |
| RSRC1 (UniProt Q96IZ7) | inactive: 0 |
| SEL1L (UniProt Q9UBV2) | inactive: 0 |
| SCLT1 (UniProt Q96NL6) | inactive: 0 |
| SAPS1 (UniProt Q9UPN7) | inactive: 0 |
| RPS6KA4 (UniProt O75676) | inactive: 0 |
| RPP40 (UniProt O75818) | inactive: 0 |
| SENP3 (UniProt Q9H4L4) | inactive: 0 |
| RSBN1L (UniProt Q6PCB5) | inactive: 0 |
| RRS1 (UniProt Q15050) | inactive: 0 |
| RRP15 (UniProt Q9Y3B9) | inactive: 0 |
| SDF2L1 (UniProt Q9HCN8) | inactive: 0 |
| SEPT11 (UniProt Q9NVA2) | inactive: 0 |
| SCYE1 (UniProt Q12904) | inactive: 0 |
| RYBP (UniProt Q8N488) | inactive: 0 |
| S100A11 (UniProt P31949) | active: 1 |
| RPL31 (UniProt P62899) | inactive: 0 |

Part of the list above, bar-delimited:
Target | dose-dependent thermal stabilisation call
RPL34 (UniProt P49207) | inactive: 0
RRAGA (UniProt Q7L523) | inactive: 0
RPAP2 (UniProt Q8IXW5) | inactive: 0
RUNDC1 (UniProt Q96C34) | inactive: 0
RSL1D1 (UniProt O76021) | inactive: 0
